# Measurements from PubChem BioAssay AID1259415 (National Center for Advancing Translational Sciences (NCATS), 2018).
# Hit rate of the full screen: of about 410,000 compounds, about 18,000 (4.4%) were called active. The inconclusive results got no clear call from the source; some entries with a clear call stand among them for comparison. Rule as the data show it: active = activity change below about -60%; inconclusive = no clear call, values can overlap the other calls; inactive = above about -39%.
# Test: qHTS Assay for inhibitors of the human cytomegalovirus (HCMV)
# Conditions: HFF cells, HCMV-luciferase reporter, 72 h; at 57.5 µM; hits give low values
# How it was run: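 Human foreskin fibroblasts infected with luciferase-reporter HCMV at MOI 1 PFU/cell, compounds at two doses. Luciferase measured 72 h post infection; normalized to buffer-only basal and Salinomycin (10uM) controls.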
# % is scaled to controls: 0 for no effect and ±100 for the full control effect.
row,SMILES,"activity change, negative = inhibition"
1,O=C(Nc1ccc(Cl)c(Cl)c1)N1N=CCC1c1ccccc1 (stereo not drawn),active: -65.7%
2,CCOc1ccc(/C=N/NC(=O)C2CCCC2)c(OCC)c1,inconclusive: -59.7%
3,COc1cc2cc(C(=O)N3CCOCC3)cc(-c3ccc(C)cc3)c2cc1OC,inconclusive: -58.8%
4,NC(=O)c1cnn(C2CCS(=O)(=O)C2)c1 (stereo not drawn),inactive: 33.5%
5,Cc1ccc(-c2nc(NC(=O)c3nn(C)cc3[N+](=O)[O-])sc2C)cc1C,active: -107%
6,C=CCn1c(SCc2nc3ccccc3[nH]2)nnc1-c1ccc(OC)cc1,inconclusive: -55.4%
7,OC(c1ccc(F)c(F)c1)c1nc(-c2cccc(F)c2)cs1 (stereo not drawn),inconclusive: -50.9%
8,Cc1cc(N2CCCC2)ccc1C=C(C#N)C#N,inconclusive: -54.6%
9,Cc1ccc(NC(=O)CSc2nn(-c3ccc(Cl)cc3)c(=S)s2)cc1S(=O)(=O)N(C)C,active: -82.6%
10,CCCCc1ccc(NC(=O)c2cc3c(=O)n4ccccc4nc3n2C)cc1,inconclusive: -43.7%
11,COc1ccc(-c2cc3ccccc3[nH]2)cc1,inactive: -0.971%
12,O=c1[nH]c(=S)c2ncn(-c3ccccc3)c2[nH]1,inactive: -15.5%
13,O=C(N/N=C/c1ccncc1)c1ccccc1OCc1ccc(Br)cc1,inconclusive: -47.5%
14,CCOc1ccccc1Nc1nnc(SCC(=O)N(C)C2CCS(=O)(=O)C2)s1 (stereo not drawn),inactive: -15.3%
15,CCOC(=O)N1CCN(C(=S)NC(=O)c2c(-c3c(Cl)cccc3Cl)noc2C)CC1,active: -68.8%
16,Cc1ccc(NC(=S)NNC(=O)c2c(Cl)c(C)nn2C)cc1,active: -72.6%
17,O=C(CSc1ccccc1)N[C@@H](Cc1ccccc1)C(=O)O,inconclusive: -50.4%
18,CCOc1ccccc1NC(=O)N1CCCC(c2nc(-c3ccc(C)o3)no2)C1 (stereo not drawn),inactive: 10.8%
19,Cc1ccc(S(=O)(=O)N2CCOCC2)cc1NC(=O)COC(=O)CNC(=O)c1ccc(Cl)cc1Cl,active: -67.8%
20,CCc1nnc(NS(=O)(=O)c2ccc(Nc3ccc([N+](=O)[O-])c4nonc34)cc2)s1,inconclusive: -42.5%
21,O=[N+]([O-])c1cc(C(F)(F)F)cc([N+](=O)[O-])c1NCCCN1CCOCC1,inconclusive: -42.4%
22,O=S(=O)(c1cccc(Br)c1)N1CCN(c2ccnc3cc(Cl)ccc23)CC1,inconclusive: -40%

# 5 successive entries out of the list so far, quoted:
row,SMILES,"activity change, negative = inhibition"
3,COc1cc2cc(C(=O)N3CCOCC3)cc(-c3ccc(C)cc3)c2cc1OC,inconclusive: -58.8%
4,NC(=O)c1cnn(C2CCS(=O)(=O)C2)c1 (stereo not drawn),inactive: 33.5%
5,Cc1ccc(-c2nc(NC(=O)c3nn(C)cc3[N+](=O)[O-])sc2C)cc1C,active: -107%
6,C=CCn1c(SCc2nc3ccccc3[nH]2)nnc1-c1ccc(OC)cc1,inconclusive: -55.4%
7,OC(c1ccc(F)c(F)c1)c1nc(-c2cccc(F)c2)cs1 (stereo not drawn),inconclusive: -50.9%

# Next compounds:

row,SMILES,"activity change, negative = inhibition"
1,COc1ccc(C(=O)CC(c2ccc(OC)c(OC)c2)c2c(O)c3ccccc3oc2=O)cc1OC (stereo not drawn),inconclusive: -46.8%
2,CN1C(=O)/C(=C/c2cccc(Cl)c2)Sc2ccc(C(=O)N3CCOCC3)cc21,inconclusive: -40.9%
3,CC(C)Cc1nnc(NC(=O)CSc2ccccn2)s1,inactive: 14.9%
4,COc1ccc2c(COC(=O)CNS(=O)(=O)c3ccccc3)cc(=O)oc2c1,inactive: 63.3%
5,Cc1ccc(S(=O)(=O)Nc2ccc(-c3cn4ccc(C)cc4n3)cc2)cc1,inconclusive: -41.4%
6,Cc1cc(C)c(N2CCN(S(=O)(=O)N3CCCCCC3)CC2)c(C)c1,inactive: -28.9%
7,CCn1c(-c2csc(-c3ccc(Cl)cc3)n2)n[nH]c1=S,inconclusive: -49.3%
8,Cc1ccc(S(=O)(=O)N2CCOC2CNC(=O)C(=O)NCCc2c[nH]c3ccccc23)cc1 (stereo not drawn),active: -79.7%
9,O=C(NCC1CCCN1S(=O)(=O)c1cccs1)c1ccc(F)c(F)c1 (stereo not drawn),inconclusive: -42.7%
10,CCOc1ccc(NC(=O)CN(C)C(=O)CCc2ccccc2Cl)cc1OCC,active: -80.4%
11,CCC(CO)[n+]1c(C)cc(/C=C2\Sc3ccccc3N2Cc2ccccc2)cc1C (stereo not drawn),active: -100%
12,O=C(NC1CCCC1)c1cc2cc(Br)ccc2o1,inactive: 18.8%
13,Cn1cc(CCC(=O)NCc2cccc(Cl)c2)c2ccccc21,inconclusive: -51.5%
14,CC(C)[C@H](NC(=O)N1c2ccccc2NC(=O)[C@@H]1C(C)C)C(=O)N[C@@H](Cc1ccccc1)C(=O)O,inactive: 39.4%
15,O=C(Nc1nccs1)c1ccc2ccccc2c1,inactive: 313%
16,COc1ccccc1-c1nnc(Nc2nc3c(OC)cccc3s2)o1,active: -75.9%
17,CCCC(=O)NC(=S)Nc1cccc(-c2nc3ncccc3o2)c1,inconclusive: -46.4%
18,O=C(COC(=O)c1ccc2ncsc2c1)NCc1cccc(Cl)c1,inconclusive: -49.7%
19,O=C(Cn1c2ccccc2c2nc3n(c(=O)c21)CCS3)N1CCCC1,inconclusive: -59.6%
20,Cc1ccnc(NC(c2ccccc2)c2ccc3cccnc3c2O)c1 (stereo not drawn),active: -77.7%
21,O=C(CCC(=O)Nc1ccc(Cl)cc1Cl)N/N=C/c1ccc([N+](=O)[O-])o1,active: -76.8%
22,COc1ccc(C(=O)[C@H]2[C@H]3C(=O)N(c4ccc(C)cc4)C(=O)[C@H]3C3C=CC=NN32)cc1 (stereo partly drawn),inconclusive: -47.5%

row,SMILES,"activity change, negative = inhibition"
1,CCn1c(-c2ccccc2Cl)nn(CC(=O)Nc2cc(Cl)ccc2Cl)c1=S,inconclusive: -46.1%
2,Cn1c2ccccc2c2n[nH]c(=O)nc21,inconclusive: -54.3%
3,CC(C)Cc1nc2ccccc2n1CCc1ccccc1,inconclusive: -44.5%
4,O=c1[nH]c(=O)n(CCC2=CCCCC2)c(O)c1C=NC1CCN(Cc2ccccc2)CC1,inconclusive: -41.4%
5,Cc1ccc(OCc2nc3ccccc3[nH]2)cc1,inactive: 11.3%
6,O=C(CSc1nc2ncccc2[nH]1)Nc1c(F)cc(F)cc1Br,inconclusive: -40.4%
7,O=C(CSc1ncnc2scc(-c3ccccc3)c12)N1CCN(c2ccccc2F)CC1,inconclusive: -51.3%
8,O=C(Nc1ccc(C(F)(F)F)cc1)C1CCC(CNS(=O)(=O)c2cccc3nsnc23)CC1 (stereo not drawn),inactive: -7.26%
9,Cc1ccc(C(=O)OCC(=O)NC(=O)NCc2ccccc2)cc1C,inactive: -2.5%
10,O=C(CCCOc1ccc(Cl)cc1Cl)NNC(=O)c1ccc(NC(=O)c2ccccc2)cc1,inactive: -14.3%
11,O=C(Nc1ccc2c(c1)CCC2)C1CCN(c2c3c(nc4ncnn24)CCC3)CC1,active: -101%
12,Cc1ccccc1N1CCN(CC(=O)Nc2nccs2)CC1,inactive: -16.8%
13,CCOC(=O)n1c(=O)n(Cc2c(Cl)cccc2Cl)c2ccccc21,inconclusive: -50%
14,O=c1[nH]c(SCCOc2cccc3ccccc23)nc2ccccc12,inconclusive: -47.2%
15,Cc1cc(C(=O)N/N=C2\CC(=O)CC(C)(C)C2)c(C)n1-c1ccc(F)cc1,active: -64.3%
16,CCc1ccccc1NC(=O)c1ccc(S(=O)(=O)N2CCCC2)cc1,inactive: -15.4%
17,CCOc1ccc2cc(C#N)c(SCC(=O)N3CCC(C)CC3)nc2c1,inconclusive: -40.7%
18,CC(CC(=O)c1ccccc1)=NCC(O)CN=C(C)CC(=O)c1ccccc1 (stereo not drawn),inactive: -0.816%
19,CCCc1nc2sc(C(=O)OCC)c(N)c2c2c1COC(C)(C)C2,inconclusive: -43%
20,CC1=NN(C(N)=S)C(C)(C)C1,inactive: -4.53%
21,COc1ccc(/C=N/NC(=O)c2ccc(COc3cccc4cccnc34)cc2)cc1OC,inconclusive: -51.7%
22,CC(C)(C)NS(=O)(=O)c1cc(C(=O)O)ccc1Cl,inconclusive: -49.1%

row,SMILES,"activity change, negative = inhibition"
1,O=C(Nc1nnc(SCC(=O)N2CCOCC2)s1)C1CC(=O)N(c2ccccc2)C1 (stereo not drawn),inconclusive: -59.1%
2,COc1ccccc1C(=O)Nc1ccc2c(c1)nc1n2CCSC1,inactive: 7.91%
3,CC(O)(c1cccc(F)c1)c1nc(-c2cc3ccccc3o2)cs1 (stereo not drawn),inconclusive: -42.7%
4,O=C(NC(Nc1nc2ccc([N+](=O)[O-])cc2s1)(C(F)(F)F)C(F)(F)F)c1cccnc1,active: -102%
5,CCOC(=O)c1cc2c(=O)n3ccccc3nc2n(CC(C)C)c1=NC(=O)C(C)(C)Oc1ccc(Cl)cc1,inactive: -4.5%
6,COC(=O)c1c(NC(=O)c2cccc(N3C(=O)CCC3=O)c2)sc2c1CCN(C(C)=O)C2,inactive: 156%
7,NC(=O)c1ccccc1N=Cc1ccccn1,inconclusive: -49.4%
8,O=C(NCc1ccc(F)cc1)c1cc(C2CCCCN2S(=O)(=O)c2cccc3cccnc23)on1 (stereo not drawn),inconclusive: -49%
9,CC1CCc2onc(C(=O)N3CCN(c4ccc(Cl)cc4)CC3)c2C1 (stereo not drawn),active: -74.1%
10,O=C(NC(=S)N1CCN(Cc2ccc3c(c2)OCO3)CC1)c1cccc(Br)c1,inconclusive: -43.1%
11,COc1ccc(CNC(=S)NCc2ccc(F)cc2)cc1OC,active: -62.9%
12,CCOC(=O)C1(Cc2cccc(Cl)c2)CCCN(C(=O)c2cn[nH]c2)C1 (stereo not drawn),inactive: -27.1%
13,Cc1ccccc1OCC(=O)Nc1ccc(N2CCOCC2)cc1N1CCOCC1,inactive: -24.5%
14,O=C(OC1CCOC1=O)c1ccc(Cl)c(S(=O)(=O)N2CCOCC2)c1 (stereo not drawn),inconclusive: -48.7%
15,Cc1ccc(-c2noc(-c3ccc(NC4CCCC4)c([N+](=O)[O-])c3)n2)cc1,inactive: 5.19%
16,CCCCCCCCCCCCCCCC[N+](C)(C)CC,active: -96%
17,Cc1nn(Cc2ccccc2)c(C)c1C(=O)NCc1ccccc1F,inconclusive: -47.1%
18,CS(=O)(=O)c1ncc(Cl)c(C(=O)N(Cc2ccc(Cl)cc2)Cc2ccco2)n1,active: -107%
19,CC(C)CC(O)(c1ccccc1)C(CN1CCOCC1)c1ccccc1 (stereo not drawn),inconclusive: -51%
20,COCCNc1nc(-c2cc(-c3ccc(Cl)cc3)on2)cc(C(C)C)n1,inconclusive: -58.2%
21,COc1cc(NC(=O)c2ccco2)c(OC)cc1NC(=O)Nc1ccccc1Cl,inconclusive: -42.4%
22,CSc1ccc(S(=O)(=O)N(CC(=O)NCc2ccccn2)c2ccc(C)cc2)cc1,inconclusive: -52.6%
